Data on two molecules can be found in PMC12574955, “The Ync13–Rga7–Rng10 complex selectively coordinates secretory vesicle trafficking and secondary septum formation during cytokinesis” (PLOS Biology, 2025).

In test [1] the target is T1, Rga7-FBD-mEGFP (Schizosaccharomyces pombe) (UniProt O94466).
T1 sequence: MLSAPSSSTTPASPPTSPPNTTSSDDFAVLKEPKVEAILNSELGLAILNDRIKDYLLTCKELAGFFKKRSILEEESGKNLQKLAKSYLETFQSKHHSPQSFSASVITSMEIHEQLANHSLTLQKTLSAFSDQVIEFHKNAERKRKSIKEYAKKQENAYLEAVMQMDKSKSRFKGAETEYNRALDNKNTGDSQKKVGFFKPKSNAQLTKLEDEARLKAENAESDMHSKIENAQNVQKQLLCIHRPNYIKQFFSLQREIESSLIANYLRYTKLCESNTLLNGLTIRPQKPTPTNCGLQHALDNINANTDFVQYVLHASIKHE
As to the kind of experiment: ectopic mistargeting to mitochondria (Tom20-GBP); protein 1 tagged with mEGFP or mECitrine tethered to mitochondria by Tom20-GBP in live S. pombe cells; recruitment of tdTomato/mCherry/RFP-tagged protein 2 seen by confocal microscopy; Ync13 with Sec1 also tested in rng10Δ cells.

In test [2] the target is T2, Rga7-mEGFP (Schizosaccharomyces pombe) (UniProt O94466).
T2 sequence: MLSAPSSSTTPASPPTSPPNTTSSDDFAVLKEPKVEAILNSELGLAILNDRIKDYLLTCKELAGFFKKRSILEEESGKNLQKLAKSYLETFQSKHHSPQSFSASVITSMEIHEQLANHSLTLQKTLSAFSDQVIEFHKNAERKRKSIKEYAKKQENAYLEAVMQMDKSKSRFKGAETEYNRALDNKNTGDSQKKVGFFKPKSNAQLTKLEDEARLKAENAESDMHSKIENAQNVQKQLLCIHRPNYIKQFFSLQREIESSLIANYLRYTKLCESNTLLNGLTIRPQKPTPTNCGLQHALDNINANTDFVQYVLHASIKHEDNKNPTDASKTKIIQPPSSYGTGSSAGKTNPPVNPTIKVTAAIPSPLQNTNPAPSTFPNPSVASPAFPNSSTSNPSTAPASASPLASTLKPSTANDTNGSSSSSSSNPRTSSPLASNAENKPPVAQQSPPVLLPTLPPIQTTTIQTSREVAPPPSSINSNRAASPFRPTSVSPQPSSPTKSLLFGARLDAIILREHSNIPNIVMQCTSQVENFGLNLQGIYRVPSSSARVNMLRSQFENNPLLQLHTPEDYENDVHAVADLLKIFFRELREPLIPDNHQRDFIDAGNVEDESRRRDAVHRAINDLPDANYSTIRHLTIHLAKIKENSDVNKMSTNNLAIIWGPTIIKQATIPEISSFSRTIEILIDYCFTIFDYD
The test is described as above.

The target in test [3] is T3, Rng10-(1-200)-mEGFP (Schizosaccharomyces pombe) (UniProt Q9P6L9).
T3 sequence: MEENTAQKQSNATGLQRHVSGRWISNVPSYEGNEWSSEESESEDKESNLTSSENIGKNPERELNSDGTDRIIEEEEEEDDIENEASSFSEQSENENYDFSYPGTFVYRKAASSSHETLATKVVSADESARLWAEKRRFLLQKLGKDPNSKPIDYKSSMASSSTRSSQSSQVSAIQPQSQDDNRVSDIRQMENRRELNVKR
The description is as above.

For test [4], the target named is T2, Rga7-mEGFP (Schizosaccharomyces pombe). The experiment in a line: co-IP; S. pombe cell extracts, proteins under native promoters; polyclonal GFP antibody on protein G Dynabeads, 2 h at 4°C; IP buffer 50 mM HEPES pH 7.5, 150 mM NaCl, 1 mM EDTA, 0.1% NP-40; anti-Myc and anti-GFP blots.

No constants are given. Whether binding was seen depends on the method and setting. For some of these results: In cells and extracts the contact can be indirect. Some entries that bind do so weakly or less than the wild type. Sequences can lack the tags named with a protein.

B1: Ync13-tdTomato (protein, UniProt O13683 1-1237)
chain: MNCRRKPLPLHSNEVQAAESISKDELYSWTLKNVLILFLVQYRASTPSALQTSSFSTPVEKKTNGAFSGSLFSAKEKKDNPKYPKDFIKYLSLALESISMGKEPEYQDQLIRGCFAAFYNNINKSHISKQLKDSRKIEDMFLIFASSVSSELTKRLGTAYDSNLADRITASFIELCKRVTLKGQLASPSSEFVSHLDMYHSKLLNKSEILSTKRVNRGQDQFDLSSFPLLKVFSSVFKVAYSKALLDAEKLFPSIDEAAIAEDIGILIEDLESDACKFSHSVVDFSNYKSYSTWKARELQTLEQHRKIMLSLIPLSSSPNHPIQPIGFPASRKTPTYVPPIARPYFRQLLSLCLEYRLQVTDPVEVKQINTFIRECSIYWRILPSTRCALSMDFAREHLQKGLITSADVLTHFGELHKSLKEWEITYWPKIDVSIFSSALFGIRNALAQLLKKSLLDLLHEKKADFHRWLNIMSICVEDGKVINQDLSPKSEISSVALALQEHCKVIFDEEFDLSKLPSSNFLDEIILASNRISVRIKFLERNCSECIYGVLSLPQIFINIVLPNYIRAALVVAKEYLREKANADINDLTKDMLEIYSDLKQMIHVLQEYHNEEYRIGSFEGFFQPFIDSWLDNVEASAEQWFLRSLEKDNFDENSSEGQYSSSIVDLFHAFHQAFRTLEGFEWEDDLANARFFTRFFRVIYIVLSKYTQWTTQKFFEEANKQDDTSEVQNDNSSSWFSKARNILSGSNEVLPFRFSPTMCILLNNIHFAMHAYEELEQKIDLQRLIEALDVAESTKRHKISATNYLYTIKVVRGEGLHPDGAGKIRTSYIVLTDNKGRRIGKTRPIHSMNPRWDDTFEVKTKDALMITANLWSKGKFNDHEIFGRSSFTLSPKIYGDYLPREEWFDLNPHGELLLRIEMEGEREHIGFYVGRTYHDLERAQREMIKFIVNKMEPVINQNLSTATLKKLLSANTWMDLDKTMTSVTSLLNRTGFSSKSSENVKKEGELTDVQIEAAIYELLDYFDLNFSIIAKHLTKDVFVTVMSYVWDEVVCTTEELLLPPVSVKPINRKPLSPAQMAIVYRWLQFLKDYFYANGEGVKLPVLETDHYKELLRVQEYYDKPTDFLLQECDKIASQLYLSSRMVNNEPVESLPRHSRIKFANKEIYRSGTIRKVHIQTNESELERNERIILRILRMRADSKRFLSKHFQRKGRLLMADAMRNGYVMPLGHLKKLDSR
With B1, the values for the binding entry in test [1], in test [2] and in test [3] were “binds”, “binds” and “no binding”, respectively.

B2: Smi1-13Myc (protein, UniProt O14362 1-504)
chain: MSKNSFSSMANSVTSFFQSLTTPNRHADPSFRPSRREKQSRLPTPLQSVAASAYSGVNASQTGLLNDSRANSVTNLPNSSNTSQVGLNNISPAPVGYVPGSKTNELANNSMEMQEISPNGSASLPPPVSESWRRIDRWAEENYYELYCQLCYGATVADVDSLEYELECTLPRDVRESLYIHDGQDRGGQPTGILFGVTLLDIEEIEEESELWRRVAQSYAEATLAGKIDQAVASRQASFPPGAVQCVYAHPGWIPLAKDFVGNNIAIDLAPGPAGQWGQVILFGRDQDTKYVVARSWADFLAIVAYDMENGKWLVDEDDNSLRLIYGPPREQWSYLDILKYRARKAERRKFKKRDGKRTTRPIPKSIAKEDVTNSANSTAPSTGTTVLDDGLDNNYEDIPLYGPSKDEELIKKEELEADTDLGLINTSEINQPANLPDEPTAETSNPVSATTVEAVTTTADNKDEEKNDHVTEDVSQNSTIAEASSLQAQEEEKEIETTSVKQE
For the molecule B2, the binding entry in test [4] is “binds”.
